## Primary screen of a compound library

The chains behind the UniProt entries cited, without tags or fusion partners. Residues count along the entry.
UniProt Q4DA54, 1-478: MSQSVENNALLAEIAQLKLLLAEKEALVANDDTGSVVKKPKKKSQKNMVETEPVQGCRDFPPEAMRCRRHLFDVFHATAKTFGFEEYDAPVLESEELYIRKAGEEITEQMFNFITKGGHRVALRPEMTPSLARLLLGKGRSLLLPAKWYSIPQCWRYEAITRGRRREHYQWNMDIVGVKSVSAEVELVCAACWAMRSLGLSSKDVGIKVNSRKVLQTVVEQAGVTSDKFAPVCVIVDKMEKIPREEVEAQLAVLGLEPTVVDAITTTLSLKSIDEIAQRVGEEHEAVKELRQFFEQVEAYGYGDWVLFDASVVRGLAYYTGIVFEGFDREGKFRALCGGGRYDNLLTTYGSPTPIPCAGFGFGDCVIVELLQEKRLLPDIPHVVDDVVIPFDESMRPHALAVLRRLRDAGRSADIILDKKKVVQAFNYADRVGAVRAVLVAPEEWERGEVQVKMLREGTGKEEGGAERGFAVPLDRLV

From ChEMBL document CHEMBL3988442, “University of Dundee, Small-Polar-MMV Screening Library” (2021).

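Histidine-tRNA ligase, Trypanosoma cruzi CL Brener (UniProt Q4DA54). Enzyme assay of histidyl-tRNA synthetase; the read-out is not stated. Tested at 30 µM. The record gives no direction; compounds that gave an IC50 in retests scored well above the rest, so higher reads as stronger inhibition. Of about 69,000 compounds tested this way, about 31 (0.045%) reached 50% or more in at least one test.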

Each number is a percent effect as filed. How 0% and 100% were set is not recorded. Most values in the screen are low, and negative values occur. The compounds are a random part of those screened.

{"compound": "O=C(Cc1cccc(F)c1F)NS(=O)(=O)c1ccc(Cl)cn1", "effect": 1.724}
{"compound": "CN(C)C(CNC(=O)N(Cc1ccco1)C1CC1)c1cccs1", "stereo": "configuration not stated", "effect": 2.597}
{"compound": "Cc1ccccc1CC(=O)N1C[C@@H]2COC[C@]2(CN(C)C)C1", "effect": -66.94}
{"compound": "Cc1cc(-c2cnn(C)c2)ccc1OCC(N)=O", "effect": 3.665}
{"compound": "Cc1cnn(CCNCc2ccc(OCc3cccnc3)cc2)c1", "effect": 5.634}
{"compound": "CCc1nc(N2CCCC(CCCOC)C2)c2cnn(C)c2n1", "stereo": "configuration not stated", "effect": 4.95}
{"compound": "CN(C)C(C(=O)NCCS(=O)(=O)N(C)C)c1cccc(F)c1", "stereo": "configuration not stated", "effect": 9.548}
{"compound": "O=C(NCC(O)Cc1ccccc1)c1ccc2[nH]c(=O)[nH]c2c1", "stereo": "configuration not stated", "effect": 10.05}
{"compound": "CC(=O)N1CCN(C(=O)CCCc2nc(C(C)C)no2)CC1", "effect": 1.504}
{"compound": "COc1ccc(Cl)cc1CNC(=O)CN1CCC2(CCOC2)C1", "stereo": "configuration not stated", "effect": 10.98}
{"compound": "CCCN(C)c1ccc(C(=O)NCc2ccnc(C)n2)cc1", "effect": 2.105}
{"compound": "CC(=O)NC(Cc1c[nH]c2cc(F)ccc12)C(=O)Nc1cnn(C)c1", "stereo": "configuration not stated", "effect": -0.6369}
{"compound": "CCOC(=O)C1(Cc2cccc(Cl)c2)CCCN(Cc2ncc[nH]2)C1", "stereo": "configuration not stated", "effect": -13.53}
{"compound": "COc1ccc(NC(=O)N2CCC3(CC2)NC(=O)CC3C(=O)O)cc1Cl", "stereo": "configuration not stated", "effect": -2.89}
{"compound": "CCOc1cccc(C(=O)N2CCCn3nc(CCC(=O)O)cc3C2)c1", "effect": 4.523}
{"compound": "CN(C)C1COC2(CCN(S(=O)(=O)c3ccc(F)cc3)CC2)C1", "stereo": "configuration not stated", "effect": 0}
{"compound": "CCCOc1ncccc1CNc1nnc(C)c(C)c1C#N", "effect": 10.2}
{"compound": "c1c(CN2CCOCC2)nc2n1CCN(C1CCOCC1)C2", "effect": 7.778}
{"compound": "CC1CCN(CC(O)CN2CCn3c(nnc3C3CC3)C2)CC1", "stereo": "configuration not stated", "effect": 5.419}
{"compound": "CCn1cc(NC(=O)NCC(c2ccc(OC)cc2)N(C)C)cn1", "stereo": "configuration not stated", "effect": 3.55}
{"compound": "CCNc1cc2c(nn1)CCN(C(=O)Cc1noc3ccccc13)C2", "effect": 0.7576}
{"compound": "CCOc1ccnc(N2CCN(C(=O)c3ccncc3)CC2)n1", "effect": 2.89}
{"compound": "Cc1noc(CN2CCC(Cc3ccc(F)cc3)CC2)n1", "effect": 4.741}
{"compound": "Cc1cc(C)nc(N2CCc3ccc(OC(F)F)cc3C2)n1", "effect": 8.152}
{"compound": "Cc1cc(CNC(=O)[C@H]2CCCCN2C(=O)OC(C)(C)C)on1", "effect": -1.058}
{"compound": "O=C(NCCc1c[nH]cn1)c1ccccc1C1CCNC1", "stereo": "configuration not stated", "effect": -1.818}
{"compound": "Cc1nc(NC(=O)C2CCCN(C(=O)C3CC3)C2)sc1C", "stereo": "configuration not stated", "effect": 8.621}
{"compound": "COc1ccc(OCc2nc(C(=O)N3C[C@H](O)[C@@H](N(C)C)C3)co2)cc1", "effect": 6.533}
{"compound": "CNS(=O)(=O)Cc1ccc(CNC(=O)c2ccc(C)[nH]c2=O)cc1", "effect": 0}
{"compound": "CC(C)CC(NC(=O)OC(C)(C)C)C(N)=O", "stereo": "configuration not stated", "effect": 5.208}
{"compound": "CN(c1ccc(CNC(=O)c2c[nH]c(=O)c(Cl)c2)cc1)C1CCCCC1", "effect": 5.556}
{"compound": "O=C(N[C@H]1CC[C@@]2(CCC(=O)N2CC2CC2)CC1)c1cnccn1", "effect": -59.22}
{"compound": "CC(C)NC(=O)COc1nc(C(C)(C)C)no1", "effect": 0}

The last 3 entries again:

compound	effect
CN(c1ccc(CNC(=O)c2c[nH]c(=O)c(Cl)c2)cc1)C1CCCCC1	5.556
O=C(N[C@H]1CC[C@@]2(CCC(=O)N2CC2CC2)CC1)c1cnccn1	-59.22
CC(C)NC(=O)COc1nc(C(C)(C)C)no1	0